Measurements taken from article PMC4627318.
No constants are given. Whether binding was seen depends on the method and setting. In cells and extracts the contact can be indirect. Some binding calls cover weakened binding; strength is not graded here.

Amino acid sequences for entries named in this document (tags omitted).
UniProt O60260: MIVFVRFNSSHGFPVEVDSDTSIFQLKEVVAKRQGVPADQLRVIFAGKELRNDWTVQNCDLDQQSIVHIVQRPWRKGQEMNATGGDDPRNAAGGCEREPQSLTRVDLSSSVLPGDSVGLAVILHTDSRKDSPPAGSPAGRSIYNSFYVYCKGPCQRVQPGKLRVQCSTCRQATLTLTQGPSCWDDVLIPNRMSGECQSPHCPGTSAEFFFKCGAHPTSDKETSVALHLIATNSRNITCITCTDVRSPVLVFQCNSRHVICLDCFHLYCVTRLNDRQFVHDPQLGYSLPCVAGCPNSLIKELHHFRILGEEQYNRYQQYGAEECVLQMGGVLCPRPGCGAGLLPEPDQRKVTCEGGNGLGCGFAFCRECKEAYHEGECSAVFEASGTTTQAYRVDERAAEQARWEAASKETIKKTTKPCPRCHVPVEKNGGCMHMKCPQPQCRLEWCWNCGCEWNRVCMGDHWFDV

Key:
[1] = target: Parkin (human (endogenous in MDA-MB-157 and MCF7)) (UniProt O60260); experiment: co-IP
[2] = target: endogenous p53 (human (endogenous in MCF7)) (UniProt P04637); experiment: co-IP

Substance	binding [1]	binding [2]
endogenous p53 (from UniProt P04637 1-393)	binds	–
Parkin (from UniProt O60260 1-465)	–	binds
